In PubChem BioAssay AID602235 (The Scripps Research Institute Molecular Screening Center, 2012) one finds IC50 data, which are given here for 1 molecule.

Sequences of proteins named here, by UniProt entry; tags and fusion partners are left off. A change or cut given only in a name is not applied to a line headed by its entry.
UniProt Q15788: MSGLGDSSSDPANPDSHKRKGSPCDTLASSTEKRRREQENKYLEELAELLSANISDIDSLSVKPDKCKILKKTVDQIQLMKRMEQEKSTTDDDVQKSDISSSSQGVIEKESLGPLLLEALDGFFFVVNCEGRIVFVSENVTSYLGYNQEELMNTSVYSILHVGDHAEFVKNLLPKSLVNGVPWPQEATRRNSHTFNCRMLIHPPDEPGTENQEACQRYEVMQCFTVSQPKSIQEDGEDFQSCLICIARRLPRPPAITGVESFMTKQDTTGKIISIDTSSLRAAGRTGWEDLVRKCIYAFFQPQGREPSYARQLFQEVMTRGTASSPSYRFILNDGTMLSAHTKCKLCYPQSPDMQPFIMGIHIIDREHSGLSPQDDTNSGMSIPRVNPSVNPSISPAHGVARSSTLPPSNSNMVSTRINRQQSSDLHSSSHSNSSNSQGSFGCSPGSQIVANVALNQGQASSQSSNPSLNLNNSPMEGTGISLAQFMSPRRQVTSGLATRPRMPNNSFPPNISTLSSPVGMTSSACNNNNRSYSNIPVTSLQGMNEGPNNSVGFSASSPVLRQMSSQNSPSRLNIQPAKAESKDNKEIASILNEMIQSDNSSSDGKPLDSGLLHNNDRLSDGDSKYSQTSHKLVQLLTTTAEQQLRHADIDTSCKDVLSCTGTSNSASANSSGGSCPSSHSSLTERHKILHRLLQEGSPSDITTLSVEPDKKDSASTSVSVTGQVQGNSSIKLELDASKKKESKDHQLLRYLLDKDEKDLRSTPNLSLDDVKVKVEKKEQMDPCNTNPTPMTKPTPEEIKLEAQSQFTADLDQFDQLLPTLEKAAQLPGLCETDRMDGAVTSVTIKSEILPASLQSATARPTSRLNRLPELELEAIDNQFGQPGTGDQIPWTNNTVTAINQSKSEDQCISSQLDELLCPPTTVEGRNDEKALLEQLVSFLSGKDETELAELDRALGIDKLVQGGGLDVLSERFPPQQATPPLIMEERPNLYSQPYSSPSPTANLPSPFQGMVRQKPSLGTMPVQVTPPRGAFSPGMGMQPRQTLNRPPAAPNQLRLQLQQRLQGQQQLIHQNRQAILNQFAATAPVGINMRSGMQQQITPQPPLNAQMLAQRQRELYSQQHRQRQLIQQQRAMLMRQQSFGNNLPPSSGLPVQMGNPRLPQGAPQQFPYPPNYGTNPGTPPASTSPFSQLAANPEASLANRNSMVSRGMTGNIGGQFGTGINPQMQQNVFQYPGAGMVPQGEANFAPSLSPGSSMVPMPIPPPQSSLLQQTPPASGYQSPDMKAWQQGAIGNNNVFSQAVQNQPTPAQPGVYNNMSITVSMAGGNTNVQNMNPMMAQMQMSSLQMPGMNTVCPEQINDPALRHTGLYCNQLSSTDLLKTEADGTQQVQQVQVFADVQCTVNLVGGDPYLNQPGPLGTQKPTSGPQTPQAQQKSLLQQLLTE

A word on the IC50: it is the concentration needed to halve the response being measured.

For the experiment, the target named is Nuclear receptor coactivator 1 (Homo sapiens) (UniProt Q15788). The experiment is described as follows: inhibition of NCOA1 transcriptional coactivation in cells – cell-based, luciferase reporter, luminescence, dose response (AID 602235).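 Note: cells transfected with pGL4.31 reporter plus pBIND-SRC1 vector; potency is for inhibitors that lower SRC1 reporter luminescence.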 Conditions: cell-based SRC1 luciferase reporter. For orientation: Reporter assays use an easily measured gene product as a stand-in for the process of interest.

The source made the active and inactive calls. The rule behind the calls is not given here. Some results are limits rather than exact numbers.

With `CN(C)C(=O)c1cccc(COc2ccc(N3C(N)=NC(N)=NC3(C)C)cc2Cl)c1`, the IC50 was inactive: > 35.8 µM.
